Laboratory results as given in PubChem BioAssay AID504467 (National Center for Advancing Translational Sciences (NCATS), 2011).
Several values for one entry are separate records, joined by “and”; a condition that tells them apart may be missing. Equal values may be shown once. In all, about 330,000 compounds went through this assay and about 7,700 (2.3%) were called active. Inconclusive results, whose numbers are uncertain, are shown with a selection of clear calls. Calls follow the shape of the dose curve; as a rule, active = well fitted inhibition curve with a large enough effect; inconclusive = small, poorly fitted or top-dose-only effect, or effect the other way; inactive = flat fitted curve, though single readings scatter. A potency beside an inconclusive call is a rough fit, not a confirmed value.

test: qHTS screen for small molecules that inhibit ELG1-dependent DNA repair in human embryonic kidney (HEK293T) cells expressing luciferase-tagged ELG1; conditions: HEK293T ELG1-luciferase reporter, luminescence, 16 h, DNA damage induced by 5-fluorouridine; activity change, negative = inhibition: at 46.1 µM (top of the series); also: nearly all actives have a fitted effect of over 55% in size
How it was run: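 Reporter activity after DNA damage by 5-fluorouridine is monitored. Compound-treated cells incubate 16 hr at 37 °C, then ONE-Glo is added for 30 min before luminescence reading.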
% is scaled to controls: 0 for no effect and ±100 for the full control effect; potency is read from the fitted curve at half-maximal effect.

Compound	activity change, negative = inhibition	Potency
Fc1ccc(NC(=S)NC2CC3CCCC(C2)N3Cc2cccs2)cc1 (stereo not given)	inactive: -6.28%	–
CCOc1ccc(S(=O)(=O)N2CC(=O)Nc3ccccc32)cc1C#N	inactive: -26.6%	–
CCCOc1ccc(/C(O)=C2/C(=O)C(=O)N(c3ccccn3)C2c2ccc(OC)cc2)cc1C (stereo not given)	inactive: -0.793%	–
COc1ccccc1NC(=O)Nc1cccc(NC(C)=O)c1	–	inconclusive: 16.4 µM [activator, single point]
COc1ccc(CN(C)C(C)C(=O)Nc2ccc(S(=O)(=O)N3CCOCC3)cc2)c(OC)c1 (stereo not given)	–	inconclusive: 20.6 µM [inhibitor, single point]
CC(C)(C)c1ccc(C(=O)Nc2ncn[nH]2)cc1	–	inconclusive: 9.2 µM [activator, partial curve]
CN(Cc1ccc(C(F)(F)F)cc1)C(=O)C1CCC(=O)N(C2CC2)C1 (stereo not given)	inactive: 14.2%	–
COc1ccc(N2Cc3cccc(C(=O)NC(C)CCc4ccco4)c3C2=O)cc1 (stereo not given)	–	inconclusive: 29.1 µM [inhibitor, single point]
O=C(c1ccc(Cl)c(S(=O)(=O)NCc2cccnc2)c1)N1CCCC1	inactive: 6.22%	–
CC1CCCN(C(=O)c2nn(C)c3c2CSc2ccccc2-3)C1 (stereo not given)	–	inconclusive: 20.6 µM [activator, single point]
O=C(CSc1ccc(-c2cccnc2)nn1)Nc1ccc(Br)cc1	–	inconclusive: 23.1 µM [inhibitor, partial curve]
Cc1ccc(Cn2nc(C)c(NC(=O)c3cc(-c4ccco4)on3)c2C)cc1	–	inconclusive: 11.2 µM [inhibitor, partial curve, poor fit]
CC(C)CN1CCNC(=O)C1CC(=O)NCCCN1CCCc2ccccc21 (stereo not given)	inactive: -1.89%	–
CSc1ccccc1C(=O)C1CCCN(C(=O)CCc2cccnc2)C1 (stereo not given)	–	inconclusive: 20.6 µM [activator, partial curve]
CCn1c(CNC(=O)c2cccc(C)c2)nc2ccccc21	inactive: -6.83%	–
COc1ccc(CCNC(=O)Nc2cccc([N+](=O)[O-])c2)cc1OC	–	inconclusive: 16.4 µM [inhibitor, single point]
CCCc1ccc(-c2cc(C(=O)N3CCN(c4ccccn4)CC3)c3ccccc3n2)cc1	–	inconclusive: 2.31 µM [activator, partial curve]
COc1ccc(OC)c(NC(=S)N2CCN(C/C=C/c3ccccc3)CC2)c1	–	inconclusive: 18.4 µM [inhibitor, single point]
c1ccc2c(c1)ncn2Cc1nnc2sc(-c3ccncc3)nn12	–	inconclusive: 0.164 µM [inhibitor, single point]
CCCCCn1c(=N)n(CC(O)COc2ccccc2OC)c2ccccc21 (stereo not given)	–	inconclusive: 18.3 µM [inhibitor, single point] and inconclusive: 20.6 µM [inhibitor, single point]
COc1ccc(OCCC(=O)OCC(=O)Nc2cccc(S(=O)(=O)N3CCOCC3)c2)cc1	–	inconclusive: 32.6 µM [activator, partial curve, poor fit]
CCc1nc(Nc2ccc3c(c2)OCO3)c2oc3ccccc3c2n1	–	inconclusive: 23.1 µM [inhibitor, single point]
CCOc1ccc(S(=O)(=O)N2CCCCC2)cc1NC(=O)Cc1cccs1	–	inconclusive: 29.1 µM [inhibitor, single point]
Cn1c(Oc2ccc(F)cc2)c(C=O)c2ccccc21	–	inconclusive: 20.6 µM [inhibitor, partial curve]

2 entries from above, with bars between the fields:
Compound | activity change, negative = inhibition | Potency
COc1ccc(N2Cc3cccc(C(=O)NC(C)CCc4ccco4)c3C2=O)cc1 (stereo not given) | – | inconclusive: 29.1 µM [inhibitor, single point]
CCCCCn1c(=N)n(CC(O)COc2ccccc2OC)c2ccccc21 (stereo not given) | – | inconclusive: 18.3 µM [inhibitor, single point] and inconclusive: 20.6 µM [inhibitor, single point]

More results follow:

Compound	activity change, negative = inhibition	Potency
O=C(CSc1nnc(-c2ccccc2O)o1)N1CCOCC1	–	inconclusive: 25.9 µM [activator, single point]
COc1ccc(OCC(O)Cn2c(Nc3cccc(C)c3)nc3c2c(=O)n(C)c(=O)n3C)cc1 (stereo not given)	–	active: 18.4 µM
O=C(NCCc1ccccc1)C1COc2ccccc2O1 (stereo not given)	–	inconclusive: 18.3 µM [activator, single point]
O=C(CSc1ccc(Cl)cc1)Nc1cccc(NC(=O)c2ccco2)c1	inactive: -18.2%	–
COc1cc2c(cc1NC(=O)C(C)OC(=O)c1ccc(S(=O)(=O)Nc3ccccc3Cl)cc1)oc1ccccc12 (stereo not given)	inactive: -0.409%	–
COc1ccc(NC(=O)c2cccs2)c([N+](=O)[O-])c1	–	inconclusive: 18.4 µM [activator, partial curve]
O=C(Nc1ccccc1C(F)(F)F)N1CCN(c2ccc3nnc(-c4ccc(F)cc4)n3n2)CC1	–	active: 11.6 µM
N#C/C(=C\c1cccc([N+](=O)[O-])c1)C(=O)NCc1cccnc1	–	active: 20.6 µM
Cc1cc(N=Nc2ccc(C)c(N=Nc3cc(C)c(N)cc3N)c2)c(N)cc1N	–	inconclusive: 1.83 µM [activator, full curve]
N#Cc1c(NC(=O)CSc2n[nH]c(Cc3ccccc3)n2)oc(-c2ccccc2)c1-c1ccccc1	–	inconclusive: 14.6 µM [inhibitor, partial curve, poor fit]
CC(=O)NCCc1nc2cc(NS(=O)(=O)c3ccc(Cl)cc3)ccc2n1C	inactive: -12.3%	–
CCn1c(CCCOc2ccc(Cl)cc2Cl)nnc1SCC(=O)Nc1cc(F)ccc1C	–	inconclusive: 23.1 µM [inhibitor, partial curve]
COc1cc(C2CC(=O)Oc3cc(C)cc(C)c32)cc(OC)c1OC (stereo not given)	inactive: 12.3%	–
NC(=O)c1ccccc1NC(=O)COc1ccc2c(c1)OCO2	–	inconclusive: 10.3 µM [activator, partial curve]
CN(C)S(=O)(=O)c1cccc(-c2nn(-c3ccccc3)cc2/C=C2\SC(=S)NC2=O)c1	–	active: 23.1 µM
CC(C(=O)Nc1ccc(C(=O)O)c(O)c1)N1C(=O)/C(=C\c2ccco2)SC1=S (stereo not given)	inactive: -5.8%	–
COc1ccc2[nH]cc(CCNS(=O)(=O)c3ccc(NC(C)=O)cc3)c2c1	–	inconclusive: 10.3 µM [inhibitor, partial curve]
COc1cc(/C=N/NC(=O)c2ccc3c(c2)OCO3)ccc1O	–	inconclusive: 25.9 µM [activator, single point]
COC(=O)C(C)Sc1nnc2n(-c3cccc(C)c3)c(=O)c3c4c(sc3n12)CCCC4 (stereo not given)	–	inconclusive: 20.6 µM [inhibitor, partial curve, poor fit]
Clc1ccc(CN2CCC(c3nc4ccc(Cl)cc4[nH]3)CC2)cc1	–	inconclusive: 25.9 µM [inhibitor, single point]
COc1ccc(-c2cc(C3CCNCC3)[nH]n2)cc1	inactive: 7.12%	–
Cn1c(=O)[nH]c(=O)c2c1nc(Br)n2CCOc1ccccc1	inactive: -30%	–
N#C/C(=C/c1ccc(Sc2nc3ccccc3[nH]2)o1)c1cccc(F)c1	–	active: 18.4 µM
CCN(CC(=O)NCc1ccncc1)S(=O)(=O)c1ccc(OC)cc1	inactive: 3.89%	–

Compound	activity change, negative = inhibition	Potency
COc1cc(CN(C(=S)NCC(=O)N2CCCC2)C2CCCC2)cc(OC)c1OC	–	inconclusive: 29.1 µM [inhibitor, single point]
CC1CCCC(NC(=S)Nc2ccc(SC(F)F)cc2)C1C (stereo not given)	inactive: 2.02%	–
CC(=O)c1cc(C#N)c(NCc2ccccc2)nc1C	–	inconclusive: 23.1 µM [activator, single point]
O=C(NC1CCCCC1)c1ccc(S(=O)(=O)N2CCCCC2)cc1	inactive: -23.2%	–
CC(C)CCNc1nc(-c2ccco2)c2c(c1C#N)CCCC2	inactive: 12%	–
COC(=O)c1ccccc1N/C=C1\CCc2c(c(C)nn2-c2ccccn2)C1=O	–	inconclusive: 18.4 µM [inhibitor, single point]
COc1cc(/C=C2/C(=O)c3cccc([N+](=O)[O-])c3C2=O)c(Br)cc1O	–	inconclusive: 29.1 µM [inhibitor, single point]
Oc1c(Cl)cc(Cl)cc1C=Nc1ccc(Br)cc1	inactive: 1.44%	–
O=C1c2ccccc2[C@@H]2C[C@@H](O)[C@H](Nc3ccccc3)CCN12	–	inconclusive: 18.3 µM [activator, partial curve, poor fit]
COc1ccc(OC)c(NC(=O)CSc2nc3ccccc3c(=O)n2CC2CCCO2)c1 (stereo not given)	–	inconclusive: 20.6 µM [inhibitor, single point]
COc1cc2c(cc1NC(=O)c1cccc([N+](=O)[O-])c1)oc1ccccc12	–	inconclusive: 29.1 µM [inhibitor, single point]
CC(C)(C)NCC(O)COc1ccccc1C(=O)CCc1ccccc1 (stereo not given)	inactive: -16.4%	–
NC(=O)CSc1nnc(-c2ccccc2F)n1C1CC1	inactive: -0.141%	–
CCOc1ccc(NC(=O)Cn2nnc(-c3ccc(C(N)=O)cc3)n2)cc1S(=O)(=O)N1CCCC1	–	inconclusive: 1.3 µM [activator, full curve, poor fit]
Cc1cc(C)cc(N2C(=O)C3NN=C(C(=O)OCc4ccccc4)C3C2=O)c1 (stereo not given)	–	inconclusive: 29.1 µM [activator, partial curve, poor fit]
O=C(CNCc1ccc(Cl)cc1)Nc1ccc(C(=O)N2CCCCCC2)cc1	inactive: -13.3%	–
COc1cc(C2CC(c3cccs3)=NN2C(=O)CCl)ccc1OC(F)F (stereo not given)	inactive: 0%	–
O=C(/C=C/c1ccc2c(c1)OCO2)NCc1ccco1	–	inconclusive: 20.6 µM [activator, single point]
COc1ccccc1-c1cc(C(=O)N/N=C/c2ccc(C)o2)c2ccccc2n1	–	inconclusive: 20.6 µM [inhibitor, partial curve, poor fit]
Cc1cc(-c2ccc(C)c(S(=O)(=O)NCc3ccc(Br)cc3)c2)on1	–	inconclusive: 20.6 µM [inhibitor, single point]
O=C(CSCc1ccc([N+](=O)[O-])cc1)Nc1ccccc1C(=O)O	–	inconclusive: 18.3 µM [activator, single point]
CSc1nsc(SCC(=O)Nc2ccc(F)cc2)n1	–	inconclusive: 20.6 µM [activator, partial curve]
